Results are given in words; binding and its absence hold for the method and conditions named. Some results given as binding are weak or reduced against the parent protein; the word gives no strength.

For experiment [1], the target named is T1, Slx4(1-758) (mouse) (UniProt Q6P1D7).
T1 sequence: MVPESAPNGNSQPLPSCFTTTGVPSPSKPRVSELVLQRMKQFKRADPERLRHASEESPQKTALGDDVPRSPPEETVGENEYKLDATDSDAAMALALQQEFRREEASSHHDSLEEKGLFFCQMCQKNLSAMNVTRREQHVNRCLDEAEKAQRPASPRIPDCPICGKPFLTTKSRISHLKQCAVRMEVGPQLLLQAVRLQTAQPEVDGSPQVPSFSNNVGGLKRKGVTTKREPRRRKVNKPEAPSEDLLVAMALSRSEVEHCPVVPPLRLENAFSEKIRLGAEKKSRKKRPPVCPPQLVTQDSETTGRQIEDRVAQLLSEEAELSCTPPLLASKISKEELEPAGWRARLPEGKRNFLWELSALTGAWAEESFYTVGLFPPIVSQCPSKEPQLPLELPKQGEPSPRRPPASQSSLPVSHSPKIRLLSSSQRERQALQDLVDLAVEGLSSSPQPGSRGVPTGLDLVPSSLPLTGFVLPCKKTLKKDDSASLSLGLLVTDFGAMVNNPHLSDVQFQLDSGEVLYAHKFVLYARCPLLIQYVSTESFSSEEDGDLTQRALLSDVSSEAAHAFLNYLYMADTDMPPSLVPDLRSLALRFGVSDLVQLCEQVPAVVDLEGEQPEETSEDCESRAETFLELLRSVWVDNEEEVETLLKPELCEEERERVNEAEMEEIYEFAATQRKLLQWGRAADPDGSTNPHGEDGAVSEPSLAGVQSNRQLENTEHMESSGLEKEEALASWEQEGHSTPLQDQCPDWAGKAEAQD
The experiment in a line: co-purification (affinity, heparin, SEC); proteins co-expressed in co-infected Sf9 cells; MBP affinity chromatography, elution with 20 mM maltose; HiTrap Heparin HP with NaCl gradient; MBP cleaved by TEV and HT by 3C overnight at 4 °C; Superose 6 Increase 10/300 GL; 20 mM Tris pH 8.0, 150 mM-1 M NaCl, 10% glycerol, 3 mM B-ME.

The target of experiment [2] is T2, Ercc1 (HT-3C-Full length) (mouse) (UniProt P07903).
T2 sequence: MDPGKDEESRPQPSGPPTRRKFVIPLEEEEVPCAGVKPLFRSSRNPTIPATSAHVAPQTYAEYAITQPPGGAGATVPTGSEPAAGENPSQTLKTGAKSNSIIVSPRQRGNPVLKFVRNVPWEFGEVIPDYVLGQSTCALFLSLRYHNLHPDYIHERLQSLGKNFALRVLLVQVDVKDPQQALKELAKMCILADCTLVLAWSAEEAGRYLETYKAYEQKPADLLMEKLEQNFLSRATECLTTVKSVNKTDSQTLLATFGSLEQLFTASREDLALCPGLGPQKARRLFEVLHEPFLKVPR
Described as above.

B1: Xpf (full length) (enzyme, UniProt Q9QZD4 1-917)
chain: MEPGLSGERRSMAPLLEYERQQVLELLDSDGLVVCARGLGTDRLLYHFLRLHCHPACLVLVLNTQPAEEEYFINQLKIEGVEHLPRRVTNEIASNSRYEVYTQGGIIFATSRILVVDFLTGRIPSDLITGILVYRAHRIIESCQEAFILRLFRQKNKRGFIKAFTDNAVAFDTGFCHVERVMRNLFVRKLYLWPRFHVAVNSFLEQHKPEVVEIHVSMTPAMLAIQTAILDILNACLKELKCHNPSLEVEDLSLENALGKPFDKTIRHYLDPLWHQLGAKTKSLVQDLKILRTLLQYLSQYDCVTFLNLLESLRATEKVFGQNSGWLFLDASTSMFVNARARVYRVPDVKLNKKAKTSEKTSSPEVQETKKELVLESNPKWEALTDVLKEIEAENKESEALGGPGRVLICASDDRTCCQLRDYLSAGAETFLLRLYRKTFEKDGKAEEVWVNVRKGDGPKRTTKSDKRPKAAPNKERASAKRGAPLKRKKQELTLTQVLGSAEEPPEDKALEEDLCRQTSSSPEGCGVEIKRESFDLNVSSDAAYGILKEPLTIIHPLLGCSDPYALTRVLHEVEPRYVVLYDAELTFVRQLEIYRASRPGKPLRVYFLIYGGSTEEQRYLTALRKEKEAFEKLIREKASMVVPEEREGRDETNLDLARGSAALDAPTDTRKAGGQEQNGTQSSIVVDMREFRSELPSLIHRRGIDIEPVTLEVGDYILTPELCVERKSVSDLIGSLHSGRLYSQCLAMSRYYRRPVLLIEFDPSKPFSLAPRGAFFQEMSSSDVSSKLTLLTLHFPRLRLLWCPSPHATAELFEELKQNKPQPDAATAMAITADSETLPESDRYNPGPQDFVLKMPGVNAKNCRSLMNQVKNIAELATLSLERLTTILGHSGNAKQLHDFLHTAYADLVSKGRVRK
With B1, the binding entry in experiment [1] and in experiment [2] was “binds” throughout.

B2: Ercc1 (HT-3C-Full length) (protein, UniProt P07903 1-298)
chain: T2 sequence
B2: in experiment [1], the binding entry is on record as “binds”.

The record behind these values is PMC12475018.
